Measured data: PubChem BioAssay AID1259405 (NCATS, 2018)
Assay: 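Mouse-designed siRNAs used to find CHO productivity engineering targets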 (primary screen). Cells: Chinese hamster CHO-K1 ovary cells with stable secreted eGFP expression. Knock-down reagent: single siRNA against mouse genes, 0.8 pmol siRNA per well (2 µl of 400 nM stock). Duration: 3 days. Detection: 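Per-well intracellular GFP measured by laser scanning cytometry, plus viability from ATP luminescence, each relative to plate median of non-targeting control wells, in %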. Reading the numbers: GFP, % of control: higher = more GFP per well, higher productivity. Hit rule: 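Called active when intracellular GFP, relative to negative control, is at or above 120%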.
Shown is an unselected part of about 50,000 reagents. Over the whole deposit, about 4,000 (8%) got an active call. 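Mouse siRNA library applied to hamster cells; one well for each siRNA.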 Reagents against one gene are numbered here. Further read-outs or replicates are left out here.

GFP, % of control, by gene symbol and reagent
Ccdc85b (GeneID 240514): #1 117 inactive; #2 104 inactive; #3 82.8 inactive
Tns2 (GeneID 209039): #1 65.7 inactive; #2 57 inactive; #3 92 inactive
Hmces (GeneID 232210): #1 84.2 inactive; #2 89.9 inactive; #3 89.1 inactive
Paxbp1 (GeneID 67367): #1 76.2 inactive; #2 75.5 inactive; #3 74.4 inactive
Zfp41 (GeneID 22701): #1 84.4 inactive; #2 71.1 inactive; #3 105 inactive
Tpgs1 (GeneID 110012): #1 97.1 inactive; #2 128 active; #3 65.9 inactive
Atp8b5 (GeneID 320571): #1 104 inactive; #2 88.3 inactive; #3 86.9 inactive
Zfp958 (GeneID 233987): #1 71.2 inactive; #2 46.8 inactive; #3 86.7 inactive
Tm9sf1 (GeneID 74140): #1 46.8 inactive; #2 137 active; #3 77.2 inactive
Ell2 (GeneID 192657): #1 72.5 inactive; #2 110 inactive
Armc5 (GeneID 233912): #1 49.5 inactive; #2 58.7 inactive; #3 93 inactive

Taken from above:
Value for Armc5 (GeneID 233912) #1 in “GFP, % of control”: 49.5
Ell2 (GeneID 192657) #2, Outcome: inactive
Entry for Paxbp1 (GeneID 67367) #2 under “Outcome”: inactive
Result for Ell2 (GeneID 192657) #1 under “Outcome”: inactive
Tpgs1 (GeneID 110012) #1, Outcome: inactive
Value for Zfp41 (GeneID 22701) #1 in “Outcome”: inactive

Continued:
GFP, % of control, by gene symbol and reagent
Or4a76 (GeneID 257984): #1 74.1 inactive; #2 76.1 inactive; #3 64.1 inactive
Rabac1 (GeneID 14470): #1 81.6 inactive; #2 86 inactive; #3 120 inactive
Nup62 (GeneID 18226): #1 98.6 inactive; #2 97.1 inactive; #3 45.1 inactive
Itih5 (GeneID 209378): #1 94.7 inactive; #2 65.9 inactive; #3 85.1 inactive
Col4a5 (GeneID 12830): #1 71.4 inactive; #2 57.1 inactive; #3 52 inactive
Etnk2 (GeneID 214253): #1 80.7 inactive
Mkrn1 (GeneID 54484): #1 86.3 inactive; #2 69.6 inactive; #3 73.1 inactive
Mgat2 (GeneID 217664): #1 85.5 inactive; #2 71.3 inactive; #3 45.8 inactive
Ephb1 (GeneID 270190): #1 94.8 inactive
Kcna4 (GeneID 16492): #1 91.4 inactive; #2 118 inactive; #3 109 inactive
Or5h18 (GeneID 258318): #1 73.3 inactive; #2 55 inactive; #3 76 inactive
Zfp51 (GeneID 22709): #1 57.5 inactive; #2 71.1 inactive; #3 76.3 inactive
Cfap300 (GeneID 234912): #1 121 active; #2 91.7 inactive; #3 80.8 inactive
Dhx16 (GeneID 69192): #1 69.8 inactive; #2 109 inactive; #3 71 inactive
Slc31a1 (GeneID 20529): #1 110 inactive; #2 62 inactive; #3 72.3 inactive
Pilra (GeneID 231805): #1 168 active; #2 76.1 inactive; #3 95.9 inactive
Fsaf1 (GeneID 66523): #1 94.6 inactive; #2 105 inactive; #3 94.4 inactive
Tmem131l (GeneID 229473): #1 74.8 inactive; #2 65.4 inactive; #3 88.1 inactive
Or4k1 (GeneID 258039): #1 99 inactive; #2 117 inactive; #3 95.7 inactive
